Two molecules from article PMC1563491 can be followed below.

By UniProt entry, the sequences of proteins in these tests, tags left out.
UniProt P23242: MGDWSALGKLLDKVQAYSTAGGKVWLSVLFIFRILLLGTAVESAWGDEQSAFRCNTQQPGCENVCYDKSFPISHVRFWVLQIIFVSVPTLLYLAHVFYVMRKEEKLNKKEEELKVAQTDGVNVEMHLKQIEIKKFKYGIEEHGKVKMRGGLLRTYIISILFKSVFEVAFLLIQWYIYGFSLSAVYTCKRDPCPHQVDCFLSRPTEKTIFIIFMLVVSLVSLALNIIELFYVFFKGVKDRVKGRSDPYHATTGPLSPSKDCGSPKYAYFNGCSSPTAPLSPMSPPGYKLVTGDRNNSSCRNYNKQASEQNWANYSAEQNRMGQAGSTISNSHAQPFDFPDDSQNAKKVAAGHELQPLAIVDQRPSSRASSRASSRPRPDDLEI

No constants are given. Whether binding was seen depends on the method and setting. In cells and extracts the contact can be indirect. Some entries that bind do so weakly or less than the wild type. For part of these data: Where a sequence is shown, tags or fusion partners need not be part of it.

Assay [1] has as its target T1, ephrin-B1 (wild type) (UniProt P52795).
T1 sequence: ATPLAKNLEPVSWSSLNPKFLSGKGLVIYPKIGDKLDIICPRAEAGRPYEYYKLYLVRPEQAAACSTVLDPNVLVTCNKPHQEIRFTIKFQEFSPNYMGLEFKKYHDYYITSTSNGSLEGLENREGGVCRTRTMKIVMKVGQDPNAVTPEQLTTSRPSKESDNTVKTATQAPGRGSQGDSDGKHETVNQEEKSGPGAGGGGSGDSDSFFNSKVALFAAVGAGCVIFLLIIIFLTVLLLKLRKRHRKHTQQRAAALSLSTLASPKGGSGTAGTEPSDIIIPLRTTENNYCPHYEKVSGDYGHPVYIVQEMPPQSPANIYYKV
The experiment in a line: pull-down; EphB2-Fc added to lysates of NIH 3T3 cells transiently transfected with wild-type ephrin-B1 or ephrin-B1^ΔPDZ, then ProteinA-Sepharose; lysis buffer of Figure 7A (100 mM Tris pH 7.4, 150 mM NaCl, 1 mM EDTA); Western blot for Cx43. For orientation: Immunoblotting shows a protein as a band on a membrane.

For assay [2], the target named is T1, ephrin-B1 (wild type). Put plainly: pull-down; EphB2-Fc (5 ug) added to lysate of NIH 3T3 cells expressing ephrin-B1, 4 h at 4 °C, then ProteinA-Sepharose; 1% NP40 lysis buffer (50 mM Hepes pH 7.5, 150 mM NaCl, 10% glycerol, 1.5 mM MgCl2, 1 mM EGTA, 100 mM NaF); Western blot for Cx43.
Assay [3] concerns the target T1, ephrin-B1 (wild type). Put plainly: pull-down + co-IP; cells lysed in RIPA buffer; which of the two precipitations was done is not told.
In assay [4] the target is T2, ephrinB1-Fc (extracellular domain of ephrin-B1 fused to the Fc fragment of human IgG) (UniProt P52795).
T2 sequence: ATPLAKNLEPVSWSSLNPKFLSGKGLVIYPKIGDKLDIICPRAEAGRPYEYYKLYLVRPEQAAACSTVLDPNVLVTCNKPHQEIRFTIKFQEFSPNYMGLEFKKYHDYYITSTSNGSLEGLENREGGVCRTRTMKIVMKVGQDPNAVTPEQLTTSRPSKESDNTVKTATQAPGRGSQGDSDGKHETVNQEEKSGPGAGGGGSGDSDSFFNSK
Put plainly: pull-down; ephrinB1-Fc incubated with lysates of NIH 3T3 cells expressing ephrin-B1; Western blot for Cx43; only the target purified.

Assay [5] concerns the target connexin43 (mouse (endogenous in NIH 3T3)) (UniProt P23242). The experiment in a line: co-IP; Cx43 monoclonal antibody (4 ug) added to lysate of NIH 3T3 cells expressing ephrin-B1, 4 h at 4 °C, then ProteinA-Sepharose; 1% NP40 lysis buffer; Western blot for ephrin-B1.
In assay [6] the target is T3, EphB2-Fc (extracellular domain of Eph-B2 receptor fused to the Fc fragment of human IgG) (UniProt P54763).
T3 sequence: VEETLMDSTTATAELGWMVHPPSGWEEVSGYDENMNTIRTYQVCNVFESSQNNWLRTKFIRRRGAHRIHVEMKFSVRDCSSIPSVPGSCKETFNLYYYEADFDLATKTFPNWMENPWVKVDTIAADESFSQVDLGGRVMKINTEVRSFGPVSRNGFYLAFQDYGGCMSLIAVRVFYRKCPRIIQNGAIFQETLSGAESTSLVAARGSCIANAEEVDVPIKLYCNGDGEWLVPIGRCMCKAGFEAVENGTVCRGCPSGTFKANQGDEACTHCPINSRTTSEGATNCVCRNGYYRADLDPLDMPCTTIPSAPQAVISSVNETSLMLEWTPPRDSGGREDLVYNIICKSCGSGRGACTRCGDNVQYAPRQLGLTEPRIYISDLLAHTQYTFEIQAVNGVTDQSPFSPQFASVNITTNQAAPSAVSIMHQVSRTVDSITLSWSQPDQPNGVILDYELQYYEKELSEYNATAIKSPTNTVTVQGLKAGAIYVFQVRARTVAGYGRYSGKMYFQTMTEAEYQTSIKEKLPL
Put plainly: pull-down; EphB2-Fc (5 ug) added to lysate of NIH 3T3 cells expressing ephrin-B1, 4 h at 4 °C, then ProteinA-Sepharose; 1% NP40 lysis buffer; only the target purified.

For the molecule connexin43 (from UniProt P23242 1-382), the binding result in the assay with ephrin-B1 (wild type) [1] is listed as “binds”; in the assay with ephrin-B1 (wild type) [2], “binds”; in the assay with ephrin-B1 (wild type) [3], “no binding (condition: lysis in RIPA buffer)”; in assay [4] it was “no binding”.

B1: ephrin-B1 (wild type) (ligand, UniProt P52795 25-345)
chain: T1 sequence
Regarding B1, the binding result in assay [5] and in assay [6] was “binds” in each case.
